PubChem BioAssay AID686938 | Drosophila RNAi Screening Center, 2013
The screen tested about 23,000 reagents; this is a random part of those with a known target gene and a result. Of all reagents, 75 (0.33%) got an active call. 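Raw plate signals without normalisation; calls rest on plate z-scores that were not deposited; ratio present for only 364 wells.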 No sequences are given here. Not given: the dose of the treatment.

Screen: 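Fly genes required for calcium entry once internal stores are emptied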 (primary screen)
System: Drosophila S2R+ cells
Reagents: long dsRNA against Drosophila genes, about 0.25 µg dsRNA per well, roughly 10,000 cells
Duration: 5 days of knock-down before the calcium assay
Conditions: thapsigargin (SERCA pump blocker) to empty calcium stores; entry signal taken 4 min after adding it
Measured: 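Per-well fluo-4 fluorescence in two replicates, unnormalised, measured in resting cells and 4 min after store depletion by the SERCA blocker thapsigargin; ratio of the two present in few wells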
Scale: calcium entry signal: higher = stronger calcium signal after store depletion; resting calcium signal: higher = higher resting calcium signal
Units: calcium entry signal in fluorescence units; resting calcium signal in fluorescence units
Hit rule: 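Called when the plate z-score of the entry-to-rest ratio, mean of duplicates, falls below −3; wells with low overall dye signal (Fmax z below −2) or more than five off-targets excluded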
Calls: active = strongly reduced calcium entry; inactive = no strong reduction

Silencing of CG9004 [DRSC08617] came out at: calcium entry signal, replicate 1 = 2.83e7; calcium entry signal, replicate 2 = 3.07e7; resting calcium signal, replicate 1 = 1.62e7; resting calcium signal, replicate 2 = 1.67e7; inactive.
For Rtnl2 [DRSC12609], the entry reads calcium entry signal, replicate 1 = 3.95e7; calcium entry signal, replicate 2 = 3.08e7; resting calcium signal, replicate 1 = 1.97e7; resting calcium signal, replicate 2 = 1.51e7; inactive.
Rtnl2 [DRSC21655] gave calcium entry signal, replicate 1 = 3.97e7; calcium entry signal, replicate 2 = 4.26e7; resting calcium signal, replicate 1 = 2.34e7; resting calcium signal, replicate 2 = 2.06e7; inactive.
With knock-down of alphaTub85E [DRSC16899], the screen gave calcium entry signal, replicate 1 = 2.72e7; calcium entry signal, replicate 2 = 2.71e7; resting calcium signal, replicate 1 = 1.97e7; resting calcium signal, replicate 2 = 1.93e7; active.
Against hth [DRSC16967], the values are calcium entry signal, replicate 1 = 2.96e7; calcium entry signal, replicate 2 = 3.14e7; resting calcium signal, replicate 1 = 1.37e7; resting calcium signal, replicate 2 = 1.63e7; inactive.
Against Ugt302C1 [DRSC15353] the deposit lists calcium entry signal, replicate 1 = 4.40e7; calcium entry signal, replicate 2 = 4.41e7; resting calcium signal, replicate 1 = 1.81e7; resting calcium signal, replicate 2 = 2.07e7; inactive.
Ku80 [DRSC02699] scored calcium entry signal, replicate 1 = 4.81e7; calcium entry signal, replicate 2 = 2.83e7; resting calcium signal, replicate 1 = 2.11e7; resting calcium signal, replicate 2 = 1.44e7; inactive.

Single entries from above.
Entry of alphaTub85E [DRSC16899] in “resting calcium signal, replicate 2”: 1.93e7
Ku80 [DRSC02699], resting calcium signal, replicate 2 = 1.44e7

More reagents:
Knock-down of hlk [DRSC05021] resulted in: calcium entry signal, replicate 1 = 3.56e7; calcium entry signal, replicate 2 = 4.99e7; resting calcium signal, replicate 1 = 1.92e7; resting calcium signal, replicate 2 = 2.23e7; inactive.
hlk [DRSC05022] showed calcium entry signal, replicate 1 = 3.71e7; calcium entry signal, replicate 2 = 5.18e7; resting calcium signal, replicate 1 = 2.03e7; resting calcium signal, replicate 2 = 2.45e7; inactive.
intr [DRSC14528] scored calcium entry signal, replicate 1 = 4.41e7; calcium entry signal, replicate 2 = 4.41e7; resting calcium signal, replicate 1 = 1.92e7; resting calcium signal, replicate 2 = 2.15e7; inactive.
Acp76A [DRSC09665] gave calcium entry signal, replicate 1 = 2.66e7; calcium entry signal, replicate 2 = 4.64e7; resting calcium signal, replicate 1 = 1.29e7; resting calcium signal, replicate 2 = 1.87e7; inactive.
CG4161 [DRSC01930] scored calcium entry signal, replicate 1 = 4.10e7; calcium entry signal, replicate 2 = 3.32e7; resting calcium signal, replicate 1 = 2.00e7; resting calcium signal, replicate 2 = 1.52e7; inactive.
